The record followed here is the supplement of paper PMC5407854, “Inhibitor of ppGalNAc-T3-mediated O-glycosylation blocks cancer cell invasiveness and lowers FGF23 levels” (eLife, 2017).

The structures appear in SMILES notation. Over roughly 1,700 compounds, “T2 sensor activation Q score (MG/GFP ratio z-score vs DMSO controls)” has its median near 0.3; the highest 2% begin near 1.9. The list shows a part of the results.

The subject of the assay is ppGalNAc-T2 sensor. Nature of the assay: T2 sensor activation Q score (MG/GFP ratio z-score vs DMSO controls) (SD units); higher = more sensor activation (inhibition of ppGalNAc-T2 glycosylation). As to conditions: HEK293 sensor cells; 10 µM; 6 h. The method, then: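 Cells were treated with compound at 10 uM for 6 h, then MG/GFP ratio was read by flow cytometry (10,000 cells per well, duplicate wells). Q = (R - R_neg)/SD_neg relative to DMSO vehicle controls; the signal rises when the glycosyltransferase is inhibited.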
With `NC(=O)C1=C[C@H]2[C@H]3C=C[C@@]2(O)C(=O)O[C@@H]3O1`, the “T2 sensor activation Q score” value is 0.8.

For the compound `CO/N=C1/C=C(C)C(=O)C(C)=C1C`, the “T2 sensor activation Q score” value came out at 0.4.

In the case of `O=C(O)C(=O)Nc1ncn[nH]1`, the “T2 sensor activation Q score” value is -0.7.

For `O=c1[nH]cnc(CN2CCCCC2)c1O`, the “T2 sensor activation Q score” value was determined as 0.2.

Consider `Cc1cccnc1NC(=O)c1csnn1`, for which the “T2 sensor activation Q score” value is -0.6.

In the case of `CN1CCC=C(C(=O)N2c3ccccc3Sc3ccc(Cl)cc32)C1`, the “T2 sensor activation Q score” value was 0.25.

Regarding `c1ccc(CSc2nnc3c4ccccc4c4ccccc4c3n2)cc1`, the “T2 sensor activation Q score” value is -1.55.

For the compound `OC1(Cc2ccccc2)CCNCC1`, the “T2 sensor activation Q score” value was -0.5.

Take `CC(C)(C)NC(=S)NC(C)(C)C`: the “T2 sensor activation Q score” value is -1.7.

For `NC(=O)Nc1n[nH]c(-c2ccccc2)n1`, the “T2 sensor activation Q score” value worked out at 0.6.

For the compound `CS/C(N)=N\S(=O)(=O)c1ccc(NC(C)=O)cc1`, the “T2 sensor activation Q score” value is -0.25.

Regarding `N#C/C(=C\c1cc(O)c(O)c(O)c1)C(N)=O`, the “T2 sensor activation Q score” value stood at 0.75.

Consider `Cc1ccccc1OCC(O)CN1CCN(c2ccc(Cl)cc2)CC1` (configuration not stated), for which the “T2 sensor activation Q score” value is 0.4.

`CN(C)/N=N/c1nc[nH]c1C(N)=O`: the “T2 sensor activation Q score” value is -0.9.

For `O=C(Nc1ccc(C(=O)O)c(O)c1)c1ccccc1`, the “T2 sensor activation Q score” value was 0.25.

On to `Cc1nc2[nH]c(=O)n(O)c(=O)c2s1`, for which the “T2 sensor activation Q score” value is -0.35.

In the case of `S=c1nc[nH]c2c1ncn2C1CCCO1` (configuration not stated), the “T2 sensor activation Q score” value was found to be 0.

Turning to `CC(=O)OCCn1c2nc(=O)[nH]c(=O)c-2nc2cc(C)c(C)cc21`, the “T2 sensor activation Q score” value was determined as 0.6.

Consider `COc1cc(NCc2ccccc2O)c2ncccc2c1`, for which the “T2 sensor activation Q score” value is 0.95.

In the case of `Cn1cnc2ncnn2c1=S`, the “T2 sensor activation Q score” value is -0.05.

Take `O=C(/C=C/c1cccnc1)/C=C/c1cccnc1`: the “T2 sensor activation Q score” value worked out at 1.6.

With `COc1cc(CCC(=O)O)on1`, the “T2 sensor activation Q score” value amounted to 1.45.

For `N#Cc1cnn(-c2cccc(Cl)c2)c1-n1cccc1`, the “T2 sensor activation Q score” value was found to be 0.2.

On to `Nc1ccc(NC(=O)c2ccc(C(=O)Nc3ccc(N)cc3)cc2)cc1`, for which the “T2 sensor activation Q score” value was found to be 1.9.

With `CCOP(=O)(OCC)/C(C#N)=C/c1c[nH]c2ccccc12`, the “T2 sensor activation Q score” value was -0.2.

On to `CC1=NN(c2ccccc2)C(=O)C1C(=S)SC1CC(=O)NC1=O` (configuration not stated), for which the “T2 sensor activation Q score” value is 0.2.

Consider `O=c1[nH]c2ccccc2n1C1=CCNCC1`, for which the “T2 sensor activation Q score” value was found to be 1.15.

Consider `Cn1c(=O)c2[nH]c(CCCc3ccc([N+](=O)[O-])cc3)nc2n(C)c1=O`, for which the “T2 sensor activation Q score” value stood at 0.25.

For `Cn1c2c(sc1=O)CCC2`, the “T2 sensor activation Q score” value is -0.4.

With `S=C(Sc1ccc(Cl)cc1)Sc1ccc(Cl)cc1`, the “T2 sensor activation Q score” value was determined as 1.05.

Turning to `COc1ccc2nc(-c3ccc(Cl)cc3)cc(C(=O)O)c2c1`, the “T2 sensor activation Q score” value was -0.7.

Consider `N#Cc1c(N)nc(N)nc1Nc1ccc(Br)cc1`, for which the “T2 sensor activation Q score” value is 1.15.

In the case of `CCCC1OC(c2cc3c(cc2Cl)OCO3)OCC1CC` (configuration not stated), the “T2 sensor activation Q score” value was -1.4.

Turning to `Oc1c(N=Nc2nn[nH]n2)ccc2ccccc12`, the “T2 sensor activation Q score” value turned out to be 3.6.

Take `CCCCSc1cc(=O)[nH]c(N)n1`: the “T2 sensor activation Q score” value came out at 1.85.

`O=C1c2ccccc2C(O)(c2ccccc2)N1c1ccncc1` (configuration not stated): the “T2 sensor activation Q score” value is 1.75.

As to `CC(=O)Nc1cccc(NC(C)=O)n1`, the “T2 sensor activation Q score” value was determined as 0.7.

Regarding `CCOC(=O)CCC1(C(=O)OC)C(=O)CCCCC/C=C/1C(=O)OC` (configuration not stated), the “T2 sensor activation Q score” value was -0.5.

In the case of `NC(=O)c1cc(Br)cc(C2CCCCC2)c1O`, the “T2 sensor activation Q score” value stood at 0.8.

Consider `O=C1c2ccccc2NC(c2cc(Cl)cc(Cl)c2O)N1CCc1ccccn1` (configuration not stated), for which the “T2 sensor activation Q score” value was -0.65.

In the case of `Nc1ccc2c(c1)N=[N+]([O-])c1cc(N)ccc1C2`, the “T2 sensor activation Q score” value was found to be 1.55.

In the case of `CCSc1nc(O)cc(=O)[nH]1`, the “T2 sensor activation Q score” value was -0.9.

Turning to `Cn1cnc([N+](=O)[O-])c1Sc1ncn[nH]1`, the “T2 sensor activation Q score” value worked out at 0.25.

As for `Oc1ccc(Nc2ccnc3cc(Cl)ccc23)cc1`, the “T2 sensor activation Q score” value came out at 1.55.

Regarding `Cc1ccc(NC(=O)N2CCCCC2)cc1NC(=O)N1CCCCC1`, the “T2 sensor activation Q score” value is -0.2.

Regarding `CCCS(=O)(=O)Nc1ccc(F)c(C(=O)c2c[nH]c3ncc(-c4ccc(Cl)cc4)cc23)c1F`, the “T2 sensor activation Q score” value is 0.25.

Turning to `CCOC(=O)N1C/C(=C\c2ccccc2)C(=O)/C(=C/c2ccccc2)C1`, the “T2 sensor activation Q score” value stood at 2.95.

Regarding `Cc1nc(/N=C(/N)N(C)C)[nH]c(=O)c1C`, the “T2 sensor activation Q score” value is 1.35.

Regarding `OC(c1cc(C(F)(F)F)nc2c(Cl)cc(Cl)cc12)C1CCCCN1` (configuration not stated), the “T2 sensor activation Q score” value amounted to 0.35.

As for `C[C@@H](CN1CC(=O)NC(=O)C1)N1CC(=O)NC(=O)C1`, the “T2 sensor activation Q score” value is 0.25.

On to `COc1cnc(SC)nc1Nc1ccc(C#N)cc1`, for which the “T2 sensor activation Q score” value is 1.65.

On to `O=C(Nc1ccc(Oc2ccc(NC(=O)Nc3ccc([N+](=O)[O-])cc3)cc2)cc1)Nc1ccc([N+](=O)[O-])cc1`, for which the “T2 sensor activation Q score” value turned out to be 0.7.

For the compound `O=C(O)/C(=C/c1ccccc1)c1ccccc1`, the “T2 sensor activation Q score” value was determined as 0.05.

With `O=c1c2ccccc2ncn1-c1ccc(Cl)cc1`, the “T2 sensor activation Q score” value was -1.3.

Take `S=C1NC2(CCCCCC2)NN1c1ccccc1`: the “T2 sensor activation Q score” value was determined as 0.05.

As for `NC(N)=NCCCS(=O)(=O)Nc1ccc(Nc2c3ccccc3nc3cc([N+](=O)[O-])ccc23)cc1`, the “T2 sensor activation Q score” value is -0.65.

Take `CCOc1nc(OCC)c2cnn(C)c2n1`: the “T2 sensor activation Q score” value was -0.25.

For `Oc1cc(CNC2CCCCC2)c(O)cc1CNC1CCCCC1`, the “T2 sensor activation Q score” value was 0.7.

As for `Fc1ccc(-c2cc(-c3cccs3)cc(-c3ccccc3)n2)cc1`, the “T2 sensor activation Q score” value was 0.45.

Consider `NC(=O)c1ccc(N=Nc2c(O)c3ccccc3[nH]c2=O)cc1`, for which the “T2 sensor activation Q score” value was 1.05.

In the case of `CCc1c(N=O)c(-c2ccccc2)n(O)[n+]1[O-]`, the “T2 sensor activation Q score” value came out at 0.15.

For the compound `Nc1cc([N+](=O)[O-])ccc1N1C(=O)CCCC1=O`, the “T2 sensor activation Q score” value was -1.05.

Take `COC1OC(O)C(NC(=O)C(F)(F)F)CC1O` (configuration not stated): the “T2 sensor activation Q score” value worked out at 1.2.

With `O=C(O)c1ccc2c(c1Nc1ccccc1)C(=O)c1ccccc1C2=O`, the “T2 sensor activation Q score” value was -2.6.

For the compound `CSc1nc(=O)[nH]nc1Sc1ccccc1`, the “T2 sensor activation Q score” value is -1.35.

With `O=NN(CCCl)C(=O)NC1CCCCC1`, the “T2 sensor activation Q score” value is -0.5.

With `COC(=O)c1c(-c2ccccc2)[nH]c(-c2nccc3ccccc23)c1C(=O)OC`, the “T2 sensor activation Q score” value was -0.35.

On to `O=C1c2ccccc2C(=O)c2[nH]cnc21`, for which the “T2 sensor activation Q score” value stood at 1.7.

Take `Cn1c(=O)c2c(nc(Cc3ccccc3)n2C)n(C)c1=O`: the “T2 sensor activation Q score” value was found to be 1.35.

On to `Cc1cc(=O)c2c(C)ccc(C)c2[nH]1`, for which the “T2 sensor activation Q score” value is -0.5.

As to `COC(=O)c1ccc(C(=O)OC)c(=O)[nH]1`, the “T2 sensor activation Q score” value is 0.25.

Consider `Cc1cccc(Nc2sc(C(=O)c3cc4cc(Cl)ccc4o3)c(N)c2C#N)c1`, for which the “T2 sensor activation Q score” value is -0.75.

`Cc1ccc(NC(=O)Nc2c(Cl)cccc2Cl)cn1`: the “T2 sensor activation Q score” value was -1.25.

As to `CC1CCC(C(C)C)C(NC(=O)c2ccncc2)C1` (configuration not stated), the “T2 sensor activation Q score” value was -1.

For the compound `CN(C)S(=O)(=O)Nc1cccc(Br)c1`, the “T2 sensor activation Q score” value is -0.25.

`N#CC1=C(Nc2ccccc2Cl)SC(c2ccccc2O)NC1=O` (configuration not stated): the “T2 sensor activation Q score” value worked out at 0.2.

Turning to `CN(C)S(=O)(=O)Nc1ccccn1`, the “T2 sensor activation Q score” value was determined as 0.25.

Regarding `COc1ccccc1/C=C/C(=O)/C=C/c1ccccc1O`, the “T2 sensor activation Q score” value was 1.7.

Consider `Cc1nc2cc[nH]n2c(=O)c1CCc1ccccc1`, for which the “T2 sensor activation Q score” value was 0.35.

On to `CC(=O)[C@H]1CC[C@H]2[C@@H]3CCC4=CC(=O)CC[C@]4(C)[C@@]3(F)[C@@H](O)C[C@]12C`, for which the “T2 sensor activation Q score” value was -1.95.

As to `CC(=O)[C@H]1CC[C@H]2[C@@H]3CCC4=CC(=O)C=C[C@]4(C)[C@H]3C(=O)C[C@]12C`, the “T2 sensor activation Q score” value was found to be 1.65.

For the compound `COC(=O)Cc1[nH]c(=S)[nH]c1C(=O)OC`, the “T2 sensor activation Q score” value stood at 1.2.
